PubChem BioAssay AID210 (DTP/NCI, 2004)
The list shows only some results of the screen, not a fair sample: it gathers tests that were run many times, whatever their T/C, doses with no T/C, and many T/C values between a quarter and a half above the control. Other doses and runs of a compound stand elsewhere. T/C: endpoint of the treated group in % of that of the vehicle group. Some doses have a count of surviving animals in place of a T/C: the source holds a T/C of zero for them, seemingly a mark for toxic or unscored doses. Some doses without a T/C left all or most animals alive at the check, yet need not have been tolerated: the source hardly ever lists a survival T/C far under the control, and the zero likely stands for such cases as well. Survivors were counted at the toxicity check, usually on the fifth day, unless a day is given; later deaths do not show. Schedule codes are those of the source, taken here to give the interval after Q, in days (D) or hours (H), and the number of doses after X. Where survival is the endpoint, the PubChem record calls one and a half times the control and up active, and a quarter to a half above the control has no call in these data; cut-offs in other NCI protocols can differ. Some entries were tested several times; the values are given in rising order. Some T/C values carry the count of animals alive at the toxicity check (mostly the fifth day); where none is given, no animal had died by that day. *1 amine or outer side, *2 acyl side, *3 side chain or, on linkers, in order; H or OH if unused. Where a SMILES comes first, the peptide text is derived from it. Bridges are numbered along the chain shown (N, C = ends). Roman numbers before positions name the chains, in order. [ ]: non-standard residue; d: D form. Actinocin(1to9) = Cc1c2oc3c(C)ccc(C(=O)[*:2])c3nc-2c(C(=O)[*:1])c(N)c1=O; NMeV = CN[CH](C(=O)O)C(C)C; Aze = O=C(O)[CH]1CCN1; Sar = CNCC(=O)O

System: CD2F1 mice, ip Colon 26 adenocarcinoma, median survival T/C
Experiment: NCI In Vivo Anticancer Drug Screen. Data for tumor model Colon 26 Adenocarcinoma (intraperitoneal) in CD2F1 (CDF1) mice
Settings: T/C endpoint: median survival time, higher T/C = longer survival
Description: The antitumor activity of compounds was measured in mice bearing transplantable tumors. Survival or tumor size were measured and the results are expressed as the measurement made in the treated group (T) divided by the measurement made in the vehicle treated control group (C). The tumor model used in this assay is Colon 26 Adenocarcinoma (intraperitoneal) in CD2F1 (CDF1) mice

For `CCCCCCCCNc1cc2c3c(c1)CCCN3CCC2`, the survivor count (dose: 12.0 mg/kg/injection, schedule: Q04DX003 (ip), vehicle: Klucel (hydroxypropylcellulose) (HPC)) was 6 of 10 and the survivor count (dose: 24.0 mg/kg/injection, schedule: Q04DX003 (ip), vehicle: Klucel (hydroxypropylcellulose) (HPC)) was 4 of 10.

With `Nc1ncnc2c1ncn2C1OC(CO)C(O)C1O` (centres undefined) the survivor count (dose: 512.0 mg/kg/injection, schedule: Q04DX002 (ip), vehicle: Klucel (hydroxypropylcellulose) (HPC)) was 10 of 10.

In the case of `NCCNc1ccc(NCCN)c2c1C(=O)c1ccccc1C2=O`, the T/C (dose: 1.0 mg/kg/injection, schedule: Q01DX009 (ip), vehicle: acid diluted with saline) is reported as 145 % of control and the survivor count (dose: 24.0 mg/kg/injection, schedule: Q01DX009 (ip), vehicle: acid diluted with saline) is reported as 8 of 10.

`Cc1c(N)nc([C@H](CC(N)=O)NC[C@H](N)C(N)=O)nc1C(=O)N[C@H](C(=O)N[C@H](C)[C@@H](O)[C@H](C)C(=O)N[C@H](C(=O)NCCc1nc(-c2nc(C(=O)NCCC[S+](C)C)cs2)cs1)[C@@H](C)O)C(OC1OC(CO)C(O)C(O)C1OC1OC(CO)C(O)C(OC(N)=O)C1O)c1cnc[nH]1` (some centres undefined) was tested, and the survivor count (dose: 32.0 mg/kg/injection, schedule: Q01DX009 (ip), vehicle: saline) was 10 of 10.

For `Cc1c2oc3c(C)ccc(C(=O)NC4C(=O)NC(C(C)C)C(=O)N5CCCC5C(=O)N(C)CC(=O)N(C)C(C(C)C)C(=O)OC4C)c3nc-2c(C(=O)NC2C(=O)NC(C(C)C)C(=O)N3CCC3C(=O)N(C)CC(=O)N(C)C(C(C)C)C(=O)OC2C)c(N)c1=O` (centres undefined) (I: TV[Aze][Sar][NMeV] / II: TVP[Sar][NMeV]; ester I:1-I:C, II:1-II:C; linker I:N-II:N via Actinocin(1to9); configuration not given here), the T/C (dose: 0.39 mg/kg/injection, schedule: Q04DX003 (ip), vehicle: saline + alcohol) was 138 % of control, the T/C (dose: 1.08 mg/kg/injection, schedule: Q04DX003 (ip), vehicle: saline + alcohol) was 132 % of control and the survivor count (dose: 1.8 mg/kg/injection, schedule: Q04DX003 (ip), vehicle: saline + alcohol) was 10 of 10. The survivor count (dose: 1250.0 micrograms/kg/injection, schedule: Q04DX003 (ip), vehicle: saline + alcohol) was 8 of 8, the survivor count (dose: 1500.0 micrograms/kg/injection, schedule: Q01DX001 (ip), vehicle: saline + alcohol) was 2 of 8 and the survivor count (dose: 3000.0 micrograms/kg/injection, schedule: Q01DX001 (ip), vehicle: saline + alcohol) was 3 of 8.

In the case of `O=[N+]([O-])O.[Ga]`, the survivor count (dose: 100.0 mg/kg/injection, schedule: Q01DX005 (ip), vehicle: saline) is reported as 12 of 12, the survivor count (dose: 200.0 mg/kg/injection, schedule: Q01DX005 (ip), vehicle: saline) is reported as 7 of 8 and the survivor count (dose: 200.0 mg/kg/injection, schedule: Q04DX003 (ip), vehicle: saline) is reported as 10 of 10.

`C1OC1CN1CCN(CC2CO2)CC1` (centres undefined) was tested, and the T/C (dose: 12.5 mg/kg/injection, schedule: Q04DX003 (ip), vehicle: saline) was 134 and 144 % of control, the T/C (dose: 25.0 mg/kg/injection, schedule: Q04DX003 (ip), vehicle: saline) was 149 % of control and the survivor count (dose: 100.0 mg/kg/injection, schedule: Q04DX003 (ip), vehicle: saline) was 4 of 10.

With `COc1cccc2c1C(=O)c1c(O)c3c(c(O)c1C2=O)CC(O)(C(=O)CO)CC3OC1CC(N)C(O)C(C)O1` (centres undefined) the survivor count (dose: 1.13 mg/kg/injection, schedule: Q04DX003 (ip), vehicle: water) was 8 of 8, the T/C (dose: 4.5 mg/kg/injection, schedule: Q04DX003 (ip), vehicle: water) was 137 % of control and the survivor count (dose: 36.0 mg/kg/injection, schedule: Q04DX003 (ip), vehicle: water) was 8 of 8. For the same compound, the T/C (dose: 83.0 mg/kg/injection, schedule: Q07DX002 (iv), vehicle: saline) was 132 % of control, the T/C (dose: 111.0 mg/kg/injection, schedule: Q07DX002 (iv), vehicle: saline) was 126 % of control and the T/C (dose: 125.0 mg/kg/injection, schedule: Q07DX002 (iv), vehicle: saline) was 139 % of control. The survivor count (dose: 167.0 mg/kg/injection, schedule: Q07DX002 (iv), vehicle: saline) was 1 of 2.

For `CO[C@H]1C[C@@H]2CC[C@@H](C)[C@@](O)(O2)C(=O)C(=O)N2CCCC[C@H]2C(=O)O[C@H]([C@H](C)C[C@@H]2CC[C@@H](O)[C@H](OC)C2)CC(=O)[C@H](C)C=C(C)[C@@H](O)[C@@H](OC)C(=O)[C@H](C)C[C@H](C)/C=C/C=C/C=C1C`, the survivor count (dose: 400.0 mg/kg/injection, schedule: Q04DX003 (ip), vehicle: saline with Tween-80) was 10 of 10.

`c1cc[c]([Sn][c]2ccccc2)cc1` was tested, and the T/C (dose: 10.0 mg/kg/injection, schedule: Q04DX003 (ip), vehicle: saline with Tween-80) was 126 % of control [8 of 10 alive], the survivor count (dose: 20.0 mg/kg/injection, schedule: Q04DX003 (ip), vehicle: saline with Tween-80) was 0 of 10 and the survivor count (dose: 20.0 mg/kg/injection, schedule: Q04DX003 (ip), vehicle: saline) was 0 of 10.

With `O=C(O)c1c2c(nc3ccccc13)Cc1ccccc1-2` the T/C (dose: 50.0 mg/kg/injection, schedule: Q04DX002 (ip), vehicle: water) was 138 % of control, the T/C (dose: 200.0 mg/kg/injection, schedule: Q04DX002 (ip), vehicle: water) was 125 % of control [9 of 10 alive] and the survivor count (dose: 400.0 mg/kg/injection, schedule: Q04DX002 (ip), vehicle: water) was 4 of 10.

`Cc1c2oc3c(C)c(N)cc(C(=O)NC4C(=O)NC(C(C)C)C(=O)N5CCCC5C(=O)N(C)CC(=O)N(C)C(C(C)C)C(=O)OC4C)c3nc-2c(C(=O)NC2C(=O)NC(C(C)C)C(=O)N3CCCC3C(=O)N(C)CC(=O)N(C)C(C(C)C)C(=O)OC2C)c(N)c1=O` (centres undefined) was tested, and the survivor count (dose: 2000.0 micrograms/kg/injection, schedule: Q01DX001 (ip), vehicle: saline + alcohol) was 3 of 8 and the survivor count (dose: 4000.0 micrograms/kg/injection, schedule: Q01DX001 (ip), vehicle: saline + alcohol) was 0 of 8.

`CN(C)CCCNc1ccc(NCCCN(C)C)c2c1C(=O)c1ccccc1C2=O` was tested, and the survivor count (dose: 64.0 mg/kg/injection, schedule: Q01DX009 (ip), vehicle: saline) was 8 of 10.

`Nc1ncnc2c1ncn2C1OC(CO)CC1O` (centres undefined) was tested, and the survivor count (dose: 300.0 mg/kg/injection, schedule: Q04DX002 (ip), vehicle: Klucel (hydroxypropylcellulose) (HPC)) was 6 of 10.

With `O=C1c2ccccc2C(=O)c2c(NCCN3CCNCC3)ccc(NCCN3CCNCC3)c21` the T/C (dose: 32.0 mg/kg/injection, schedule: Q01DX009 (ip), vehicle: acid diluted with saline) was 129 % of control and the survivor count (dose: 64.0 mg/kg/injection, schedule: Q01DX009 (ip), vehicle: acid diluted with saline) was 3 of 10.

For `C/C=C/C1=CC(=O)C(O)C1O` (centres undefined), the survivor count (dose: 360.0 mg/kg/injection, schedule: Q04DX002 (ip), vehicle: water) was 1 of 10.

`CC(C)CCCCCCCCCCCCC(=O)NCC(=O)NC1C(O)C(O)C(Nc2ncnc3nc[nH]c23)OC1C(O)CO` (centres undefined) was tested, and the T/C (dose: 8.0 mg/kg/injection, schedule: Q04DX003 (ip), vehicle: Klucel (hydroxypropylcellulose) (HPC)) was 138 % of control and the survivor count (dose: 16.0 mg/kg/injection, schedule: Q04DX003 (ip), vehicle: Klucel (hydroxypropylcellulose) (HPC)) was 10 of 10.

With `C=C1C(=O)OC2CC1CCC1(C)OC1CCC(C)=CCCC2(C)O` (centres undefined) the survivor count (dose: 180.0 mg/kg/injection, schedule: Q04DX002 (ip), vehicle: Klucel (hydroxypropylcellulose) (HPC)) was 6 of 10.

In the case of `COC(=O)C(F)C(Br)C(=O)OC` (centres undefined), the survivor count (dose: 100.0 mg/kg/injection, schedule: Q04DX003 (ip), vehicle: saline with Tween-80) is reported as 6 of 10 and the survivor count (dose: 200.0 mg/kg/injection, schedule: Q04DX003 (ip), vehicle: saline with Tween-80) is reported as 0 of 10.
